The supplement of paper PMC10032668
The other results are listed elsewhere or left out. Only hits are listed; about a third recur on repeated control peptides.

Sequences of proteins named here, by UniProt entry; tags and fusion partners are left off.
ATP6V1F, Q16864, UniProt Q16864, whole entry: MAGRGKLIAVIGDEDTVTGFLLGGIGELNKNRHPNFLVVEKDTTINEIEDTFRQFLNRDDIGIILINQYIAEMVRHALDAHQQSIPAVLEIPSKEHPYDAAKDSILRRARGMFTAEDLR
CFL1, P23528, UniProt P23528, whole entry: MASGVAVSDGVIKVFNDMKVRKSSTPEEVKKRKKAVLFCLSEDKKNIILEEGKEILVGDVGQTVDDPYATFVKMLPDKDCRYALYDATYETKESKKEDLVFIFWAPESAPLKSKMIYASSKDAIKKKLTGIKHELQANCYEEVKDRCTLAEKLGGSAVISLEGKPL
EIF3G, O75821, UniProt O75821, whole entry: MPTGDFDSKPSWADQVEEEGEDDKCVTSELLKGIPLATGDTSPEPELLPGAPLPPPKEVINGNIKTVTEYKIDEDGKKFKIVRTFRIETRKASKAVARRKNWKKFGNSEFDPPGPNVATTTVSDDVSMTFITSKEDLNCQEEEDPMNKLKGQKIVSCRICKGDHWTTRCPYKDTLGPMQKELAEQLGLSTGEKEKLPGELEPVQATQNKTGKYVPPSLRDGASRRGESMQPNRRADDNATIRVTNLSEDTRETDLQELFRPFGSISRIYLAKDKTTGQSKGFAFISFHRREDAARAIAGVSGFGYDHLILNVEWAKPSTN
DNM1L, O00429, UniProt O00429, whole entry: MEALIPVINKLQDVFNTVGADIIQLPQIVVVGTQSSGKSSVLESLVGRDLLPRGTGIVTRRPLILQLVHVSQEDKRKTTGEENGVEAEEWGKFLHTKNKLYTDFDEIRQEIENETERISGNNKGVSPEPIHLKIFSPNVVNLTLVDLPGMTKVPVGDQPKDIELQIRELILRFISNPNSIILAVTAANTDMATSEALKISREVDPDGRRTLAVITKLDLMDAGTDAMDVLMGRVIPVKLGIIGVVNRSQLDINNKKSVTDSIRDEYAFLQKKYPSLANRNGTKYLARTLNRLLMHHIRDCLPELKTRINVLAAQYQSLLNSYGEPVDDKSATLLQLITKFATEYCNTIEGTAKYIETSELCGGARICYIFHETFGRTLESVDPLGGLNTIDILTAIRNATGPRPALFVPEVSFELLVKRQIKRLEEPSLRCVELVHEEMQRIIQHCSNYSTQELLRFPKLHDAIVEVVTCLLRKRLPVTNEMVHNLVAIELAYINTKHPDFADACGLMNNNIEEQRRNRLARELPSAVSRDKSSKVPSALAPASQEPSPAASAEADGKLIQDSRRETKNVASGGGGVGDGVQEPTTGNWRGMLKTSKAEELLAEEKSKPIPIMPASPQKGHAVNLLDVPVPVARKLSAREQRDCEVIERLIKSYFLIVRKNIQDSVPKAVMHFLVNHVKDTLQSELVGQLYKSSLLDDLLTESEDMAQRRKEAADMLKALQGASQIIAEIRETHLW
EIF4E, P06730, UniProt P06730, whole entry: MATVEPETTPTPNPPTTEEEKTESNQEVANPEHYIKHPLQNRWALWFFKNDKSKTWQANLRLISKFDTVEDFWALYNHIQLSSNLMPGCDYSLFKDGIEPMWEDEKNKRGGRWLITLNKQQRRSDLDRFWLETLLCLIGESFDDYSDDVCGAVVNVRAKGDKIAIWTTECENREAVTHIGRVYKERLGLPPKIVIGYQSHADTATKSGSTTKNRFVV
NELFA, Q9H3P2, UniProt Q9H3P2, whole entry: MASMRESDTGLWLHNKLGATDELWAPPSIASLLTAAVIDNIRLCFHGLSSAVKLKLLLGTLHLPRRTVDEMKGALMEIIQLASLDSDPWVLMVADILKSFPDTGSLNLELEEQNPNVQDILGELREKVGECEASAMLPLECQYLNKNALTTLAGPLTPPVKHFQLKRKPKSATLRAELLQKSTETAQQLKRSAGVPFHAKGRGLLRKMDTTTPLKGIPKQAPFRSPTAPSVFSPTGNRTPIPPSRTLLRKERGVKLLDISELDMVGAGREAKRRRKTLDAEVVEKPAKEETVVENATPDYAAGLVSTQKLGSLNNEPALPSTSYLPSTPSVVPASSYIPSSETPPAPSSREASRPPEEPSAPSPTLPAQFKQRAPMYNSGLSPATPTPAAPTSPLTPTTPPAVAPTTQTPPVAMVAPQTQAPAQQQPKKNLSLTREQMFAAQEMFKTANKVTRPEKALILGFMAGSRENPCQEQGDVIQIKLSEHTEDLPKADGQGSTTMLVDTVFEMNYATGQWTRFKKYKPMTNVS
PCBP2, Q15366, UniProt Q15366, whole entry: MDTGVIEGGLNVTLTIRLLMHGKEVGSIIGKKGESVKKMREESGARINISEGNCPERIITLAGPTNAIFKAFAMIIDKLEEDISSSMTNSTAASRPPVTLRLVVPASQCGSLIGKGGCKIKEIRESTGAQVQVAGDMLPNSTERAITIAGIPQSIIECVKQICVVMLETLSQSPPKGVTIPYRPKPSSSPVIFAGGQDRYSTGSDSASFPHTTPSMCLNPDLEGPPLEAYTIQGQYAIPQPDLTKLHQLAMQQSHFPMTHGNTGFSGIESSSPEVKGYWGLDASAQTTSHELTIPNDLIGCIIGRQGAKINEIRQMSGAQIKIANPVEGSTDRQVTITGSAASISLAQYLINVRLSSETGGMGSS

How the values were obtained:
Assay in all cases: PRISMA enrichment of interactor (LFQ) in peptide spot vs all other peptide spots (log2 fold change); higher = stronger / more specific binding of the interactor to the peptide
[1] = target: ABCF2, Q9UG63
Protocol: (§1)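 PRISMA: 15-aa overlapping tiles (offset 8 aa) of 60 microproteins, plus SOS1/GLUT1 control peptides, were spot-synthesized on cellulose membranes in triplicate. Membranes were incubated with benzonase-treated HEK293T lysate, and bound proteins were identified by LC-MS/MS with LFQ. Enrichment is the log2 fold change of each protein in one spot versus all other spots. Only interactors passing the significance cutoff are listed.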

[2] = target: ATP6V1F, Q16864
Protocol: as §1

[3] = target: CFL1, P23528
Protocol: as §1

[4] = target: CKAP4, Q07065
Protocol: as §1

[5] = target: EIF3G, O75821
Protocol: as §1

[6] = target: EIF5A, P63241
Protocol: as §1

[7] = target: FTSJ3, Q8IY81
Protocol: as §1

[8] = target: GATA6, Q92908
Protocol: as §1

[9] = target: GTF3C4, Q9UKN8
Protocol: as §1

[10] = target: HNRNPA3, P51991
Protocol: as §1

[11] = target: HNRNPAB, Q99729
Protocol: as §1

[12] = target: MRPS6, P82932
Protocol: as §1

[13] = target: NAA10, P41227
Protocol: as §1

[14] = target: NUFIP2, Q7Z417
Protocol: as §1

[15] = target: P4HB, P07237
Protocol: as §1

[16] = target: PFKM, P08237
Protocol: as §1

[17] = target: PPIL1, Q9Y3C6
Protocol: as §1

[18] = target: PRPF40A, O75400
Protocol: as §1

[19] = target: RBM28, Q9NW13
Protocol: as §1

[20] = target: RBM38, Q9H0Z9
Protocol: as §1

[21] = target: RBPMS, Q93062
Protocol: as §1

[22] = target: RPS3, P23396
Protocol: as §1

[23] = target: SEC61G, P60059
Protocol: as §1

[24] = target: SMARCAD1, Q9H4L7
Protocol: as §1

[25] = target: TMEM256-PLSCR3
Protocol: as §1

[26] = target: TRAF7, Q6Q0C0
Protocol: as §1

[27] = target: TXNDC5, Q8NBS9
Protocol: as §1

[28] = target: WDR5, P61964
Protocol: as §1

[29] = target: ATP1A1, P05023
Protocol: as §1

[30] = target: CALU, O43852
Protocol: as §1

[31] = target: CHERP, Q8IWX8
Protocol: as §1

[32] = target: DBN1, Q16643
Protocol: as §1

[33] = target: DNM1L, O00429
Protocol: as §1

[34] = target: EEF1AKNMT, Q8N6R0
Protocol: as §1

[35] = target: EIF4E, P06730
Protocol: as §1

[36] = target: GTF3C3, Q9Y5Q9
Protocol: as §1

[37] = target: KPNA6, O60684
Protocol: as §1

[38] = target: NELFA, Q9H3P2
Protocol: as §1

[39] = target: PCBP2, Q15366
Protocol: as §1

[40] = target: RRP15, Q9Y3B9
Protocol: as §1

[41] = target: RTF1, Q92541
Protocol: as §1

[42] = target: SIRT1, Q96EB6
Protocol: as §1

[43] = target: TRAFD1, O14545
Protocol: as §1

[44] = target: VPS52, Q8N1B4
Protocol: as §1

LREMSMDSQLVWRLL [NAV2-AS2]
PRISMA enrichment of interactor (log2) [1]: 4.56
PRISMA enrichment of interactor (log2) [2]: 4.46
PRISMA enrichment of interactor (log2) [3]: 6.35
PRISMA enrichment of interactor (log2) [4]: 5.61
PRISMA enrichment of interactor (log2) [5]: 7.35
PRISMA enrichment of interactor (log2) [6]: 4.55
PRISMA enrichment of interactor (log2) [7]: 5.32
PRISMA enrichment of interactor (log2) [8]: 5.22
PRISMA enrichment of interactor (log2) [9]: 3.93
PRISMA enrichment of interactor (log2) [10]: 6.31
PRISMA enrichment of interactor (log2) [11]: 5.78
PRISMA enrichment of interactor (log2) [12]: 4.32
PRISMA enrichment of interactor (log2) [13]: 5.36
PRISMA enrichment of interactor (log2) [14]: 6.25
PRISMA enrichment of interactor (log2) [15]: 4.48
PRISMA enrichment of interactor (log2) [16]: 4.9
PRISMA enrichment of interactor (log2) [17]: 5.11
PRISMA enrichment of interactor (log2) [18]: 4.38
PRISMA enrichment of interactor (log2) [19]: 4.58
PRISMA enrichment of interactor (log2) [20]: 5.23
PRISMA enrichment of interactor (log2) [21]: 5.84
PRISMA enrichment of interactor (log2) [22]: 6.61
PRISMA enrichment of interactor (log2) [23]: 4.66
PRISMA enrichment of interactor (log2) [24]: 5.08
PRISMA enrichment of interactor (log2) [25]: 4.68
PRISMA enrichment of interactor (log2) [26]: 4.85
PRISMA enrichment of interactor (log2) [27]: 7.97
PRISMA enrichment of interactor (log2) [28]: 7.96

YGQLCPQGRMRIATE [GAS5]
PRISMA enrichment of interactor (log2) [1]: 4.63
PRISMA enrichment of interactor (log2) [29]: 5.77
PRISMA enrichment of interactor (log2) [30]: 5.39
PRISMA enrichment of interactor (log2) [31]: 6.68
PRISMA enrichment of interactor (log2) [32]: 5.1
PRISMA enrichment of interactor (log2) [33]: 4.97
PRISMA enrichment of interactor (log2) [34]: 4.87
PRISMA enrichment of interactor (log2) [35]: 4.85
PRISMA enrichment of interactor (log2) [36]: 7.58
PRISMA enrichment of interactor (log2) [37]: 5.75
PRISMA enrichment of interactor (log2) [38]: 4.46
PRISMA enrichment of interactor (log2) [39]: 5
PRISMA enrichment of interactor (log2) [40]: 6
PRISMA enrichment of interactor (log2) [41]: 5.1
PRISMA enrichment of interactor (log2) [42]: 4.64
PRISMA enrichment of interactor (log2) [43]: 4.04
PRISMA enrichment of interactor (log2) [44]: 5.59
